The values below come from PMC4563850, “Lectin from green speckled lentil seeds (Lens culinaris) triggered apoptosis in nasopharyngeal carcinoma cell lines” (Chinese Medicine, 2015).

This data set deals with T1, GSLL (green speckled lentil seed lectin).
T1 construct: gene LcL; native, purified from seeds; 21 kDa non-reduced, subunits 17 and ~4 kDa; N-terminus TETTSFSITKFSPDQ (LcL residues 31-45); chain borders and alpha2beta2 are printed for LcL, not for GSLL
The data set is described as follows: hemagglutination inhibition, rabbit red blood cells. The following applies: PBS; 2 % rabbit red blood cells; competitive with cell-surface sugars. The data set is classed as binding, Lens culinaris.

For `OC[C@H]1OC(O)[C@H](O)[C@@H](O)[C@@H]1O` (stereo partly drawn) [glucose], the “minimal concentration with an inhibitory effect” value is given as ~ 15.6 mM.
`OC[C@H]1OC(O)[C@@H](O)[C@@H](O)[C@@H]1O` (stereo partly drawn) [mannose]: the “minimal concentration with an inhibitory effect” value is listed as ~ 15.6 mM.
The same measure for `N[C@H]1C(O)O[C@H](CO)[C@@H](O)[C@@H]1O` (stereo partly drawn) [glucosamine]: ~ 31.2 mM.
